The target in assay [1] is T1, Myc-WRB (tryptophan-rich basic protein) (UniProt O00258).
T1 sequence: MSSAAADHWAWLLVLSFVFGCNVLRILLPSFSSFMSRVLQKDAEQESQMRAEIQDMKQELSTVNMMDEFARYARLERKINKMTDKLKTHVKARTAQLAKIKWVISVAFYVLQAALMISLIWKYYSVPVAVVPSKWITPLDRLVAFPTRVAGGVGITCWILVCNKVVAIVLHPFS
Description: co-IP; HEK293T cells co-transfected with Myc-WRB and FLAG-CAML constructs; lysis in 0.1% Triton X-100, 20 mM HEPES-NaOH pH 7.5, 150 mM NaCl, 10% glycerol; 500 ug lysate; 5 ug anti-Myc (or non-specific IgG) 2 h at 4 C, Protein G magnetic beads 1 h at 4 C; western blot. For orientation: A western blot detects proteins with antibodies after separation by electrophoresis.

The chains behind the UniProt entries cited, without tags or fusion partners. Residues count along the entry.
UniProt O43681: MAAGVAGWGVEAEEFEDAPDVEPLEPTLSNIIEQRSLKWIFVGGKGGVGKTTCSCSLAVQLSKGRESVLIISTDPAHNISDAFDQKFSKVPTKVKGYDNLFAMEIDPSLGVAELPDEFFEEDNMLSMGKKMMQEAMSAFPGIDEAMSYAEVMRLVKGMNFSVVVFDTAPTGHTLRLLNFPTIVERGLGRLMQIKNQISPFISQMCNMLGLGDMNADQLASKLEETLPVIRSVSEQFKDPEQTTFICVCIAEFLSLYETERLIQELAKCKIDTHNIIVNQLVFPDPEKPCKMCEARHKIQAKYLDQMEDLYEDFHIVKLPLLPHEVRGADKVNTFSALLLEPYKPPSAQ
UniProt P49069, residues 186-296: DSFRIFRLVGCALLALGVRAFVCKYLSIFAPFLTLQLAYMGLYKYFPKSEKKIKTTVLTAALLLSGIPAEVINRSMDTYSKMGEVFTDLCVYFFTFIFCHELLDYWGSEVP

Assay [2] concerns the target 3xHA-TRC40 (transmembrane domain recognition complex of 40 kDa) (UniProt O43681). Description: co-IP; HEK293T cells co-transfected with HA-TRC40 and FLAG-CAML constructs; lysis in 0.1% Triton X-100, 20 mM HEPES-NaOH pH 7.5, 150 mM NaCl, 10% glycerol; 500 ug lysate; 30 ul anti-HA-affinity matrix (or agarose beads as control) 2 h at 4 C; western blot.

The source of these data is paper PMC5447128.

Results are given in words; binding and its absence hold for the method and conditions named. Binding seen in cells or lysates may run through a third protein. Some entries that bind do so weakly or less than the wild type. For some assays here: Tags and fused reporters may be left off the sequences shown.

With “FLAG-CAML-C (CAML residues 186-296, C-terminal fragment C3) (from UniProt P49069 186-296) (domain or fragment)”, the binding result in assay [1] was “binds”; in assay [2] it was “no binding”.
